# Source: PubChem BioAssay AID1259415 (National Center for Advancing Translational Sciences (NCATS), 2018)
# “And” between values parts separate entries of the source, which are not always exact repeats. Equal entries are not always repeated. Out of some 410,000 compounds screened, about 18,000 (4.4%) were called active. The inconclusive results got no clear call from the source; some entries with a clear call stand among them for comparison. No stated cut-off is given here; in the data, active means activity change below about -60%; inconclusive means no clear call, values can overlap the other calls; inactive means above about -39%.
# Experiment: qHTS Assay for inhibitors of the human cytomegalovirus (HCMV)
# Details: HFF cells, HCMV-luciferase reporter, 72 h; at 57.5 µM; active compounds read low
# Summary of the method: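 HFF cells seeded 16 h at 37C, treated with compounds, infected with luciferase-reporter HCMV at MOI 1 PFU/cell; luciferase read at 72 h post infection, normalized to buffer-only and Salinomycin controls.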
# On the % scale 0 is the no-effect control and ±100 the full control effect.
row,SMILES,"activity change, negative = inhibition"
1,CC(=O)c1ccccc1OCc1ccc(S(=O)(=O)Cc2ccccc2)cc1,active: -70.5%
2,O=C(Nc1ccc2c(c1)CCCN2C(=O)c1cccs1)c1cccc(F)c1,inconclusive: -57.4%
3,COc1ccc(NC(=O)CN(C)C(=O)c2ccc(COc3ccccc3)cc2)cc1,inconclusive: -40.6%
4,CN(C)S(=O)(=O)c1ccc(Cl)c(NC(=O)CN2CCc3ccccc3C2)c1,active: -63.7%
5,CCOc1ccccc1NC(=O)Cn1nnc(C(=O)NCc2cccs2)c1N,inconclusive: -56.6%
6,O=C(/C=C\c1ccco1)NC(=S)Nc1ccccc1O,inactive: 18.6%
7,OCCN1C2=NCCCN2c2ccccc21,inactive: 24.6%
8,CCOc1ccccc1NC(=O)c1cc(-c2ccncc2)nc2c(Cl)cccc12,inactive: -27.2%
9,O=C(Cc1cc(=O)[nH]c(=O)[nH]1)NCCN1CCOCC1,inconclusive: -47.1%
10,C[C@@H]1CN([C@H](C)CO)C(=O)c2cc(NS(=O)(=O)c3ccccc3)ccc2O[C@@H](C)CCCCO[C@@H]1CN(C)Cc1ccccc1,inactive: -18.1%
11,CCCCn1c(=N)n(CC(=O)c2ccco2)c2ccccc21,inactive: -15.5%
12,Cc1cc(-c2nc(-c3ccc(C(C)(C)C)cc3)no2)no1,inconclusive: -50%
13,COC(=O)c1ccc(NC(=O)CSC2=NCCN2)cc1,inconclusive: -53%
14,COc1ccccc1NC(=O)CCCC(=O)OC(C)C(=O)c1ccccc1 (stereo not drawn),inconclusive: -48.1%
15,O=C(/C=C/c1ccc([N+](=O)[O-])cc1)c1ccccc(=O)c1O,active: -95.4%
16,Nc1ccccc1-c1ccccc1N,inconclusive: -53.6%
17,Cc1cc(C)c2ccc3c(C)c(C)nc3c2[nH]1,inconclusive: -46.5%
18,CCc1c(-c2ccccc2)nc2ccccc2c1C(=O)NC(C)c1ccccc1 (stereo not drawn),inconclusive: -47.8%
19,CCOC(=O)C1CCCN(S(=O)(=O)c2cc(-c3onc(C)c3C)ccc2OC)C1 (stereo not drawn),inactive: -6.77%
20,COc1ccc(-c2cccc(CCC(=O)N3CCN(c4cc(C)ccc4C)CC3)c2)cc1,inconclusive: -41.5%
21,CCCCCCN1C=CC=C/C1=C/C=C(C#N)C#N,inconclusive: -56.8%
22,Nc1c(N(CCC2=CCCCC2)C(=O)c2ccc([N+](=O)[O-])o2)c(=O)[nH]c(=O)n1Cc1ccccc1,inconclusive: -45.4%

row,SMILES,"activity change, negative = inhibition"
1,CC(C)c1cc(C(=O)O)c2cnn(C(C)C)c2n1,inactive: 0%
2,CC1(C(=O)NCc2ccco2)Cc2c(-c3ccccc3)ccnc2O1 (stereo not drawn),inactive: -34.8%
3,Cc1cccc(NS(=O)(=O)c2ccc(-c3cnc(C4CC4)o3)cc2)c1C,inconclusive: -43.6%
4,Cc1ccc(C(C)C)c(O)c1C(=O)O,active: -62.9%
5,CC(=O)N(C)N1c2ccccc2CCc2ccccc21,inconclusive: -42.7%
6,CCc1nn2c(NCCOC)cc(C)nc2c1-c1ccc(F)cc1,inconclusive: -45.1%
7,O=C(COc1ccccc1)Nc1cc(C(F)(F)F)ccc1N1CCCC1,inconclusive: -42.1%
8,CCN1CCN(c2cc(C)c3cc(NC(=O)c4cccc(OC)c4)ccc3n2)CC1,inconclusive: -40.8%
9,Fc1ccccc1Nc1c2c(nc3ccccc13)CCC2,inconclusive: -50.4%
10,CCN1CCN(c2c(/C=C3\SC(=S)N(Cc4ccco4)C3=O)c(C)c(C#N)c(=O)n2C)CC1,active: -72.9%
11,CC(C)c1ccc(CC(=O)N2CCC2(C)C(=O)Nc2cnc3ccccc3c2)cc1 (stereo not drawn),inconclusive: -52%
12,CCN(Cc1ccncc1)S(=O)(=O)c1ccc(C(C)=O)cc1,inconclusive: -42.7%
13,CCCCNC(=O)c1ccc2c(c1)N(CC)C(=O)c1ccccc1S2(=O)=O,inactive: -0.305%
14,COc1ccccc1C(=O)Nc1c(C(=O)Nc2cc(Cl)ccc2C)sc2nc(C)cc(C)c12,active: -102%
15,Cc1nc2ccccc2c(=O)n1NC(=O)c1ccc(Cl)c([N+](=O)[O-])c1,inconclusive: -52.6%
16,Cc1ccccc1NC(=O)NCCc1c[nH]c2ccccc12,inactive: -13% and inactive: -23.9%
17,CCN(CC)c1cc(C)c2cc(NC(=O)c3ccc(OC)c(OC)c3)ccc2n1,active: -89.3%
18,O=C(CCCN1C(=O)/C(=C/c2cccs2)SC1=S)Nc1cc([N+](=O)[O-])ccc1O,active: -73.5%
19,CCOC(=O)C1CCCN(C(=O)c2cc(C#N)cs2)CC1 (stereo not drawn),inactive: -1.55%
20,Cc1ccc(NC(=O)c2ccc(NC(=O)N3CCSc4ncccc43)cc2)c(Cl)c1,inconclusive: 0%
21,FC(F)(F)c1nnc(-c2ccccc2)nc1N1CCOCC1,inactive: -1.32%
22,CCc1ccc(NC(=O)CSc2nc3c([nH]c4ccccc43)c(=O)n2-c2ccc(C)cc2)cc1,active: -96%

# Arranged by count of non-hydrogen atoms (low to high): part of the list above.
row,SMILES,"activity change, negative = inhibition"
9,Fc1ccccc1Nc1c2c(nc3ccccc13)CCC2,inconclusive: -50.4%
13,CCCCNC(=O)c1ccc2c(c1)N(CC)C(=O)c1ccccc1S2(=O)=O,inactive: -0.305%
11,CC(C)c1ccc(CC(=O)N2CCC2(C)C(=O)Nc2cnc3ccccc3c2)cc1 (stereo not drawn),inconclusive: -52%

# In the list so far, these have a COOH group.
row,SMILES,"activity change, negative = inhibition"
1,CC(C)c1cc(C(=O)O)c2cnn(C(C)C)c2n1,inactive: 0%
4,Cc1ccc(C(C)C)c(O)c1C(=O)O,active: -62.9%

# At a glance, some entries already given.
row,SMILES,"activity change, negative = inhibition"
8,CCN1CCN(c2cc(C)c3cc(NC(=O)c4cccc(OC)c4)ccc3n2)CC1,inconclusive: -40.8%
9,Fc1ccccc1Nc1c2c(nc3ccccc13)CCC2,inconclusive: -50.4%

# Next part

row,SMILES,"activity change, negative = inhibition"
1,COc1ccc(C(=O)NN/C=C/C(=O)c2ccc(Br)cc2)cc1,inactive: 48.7%
2,O=C(Nc1ccc(Cl)cc1)c1cnn2c1NC(c1ccccc1)=CC2c1ccccc1 (stereo not drawn),active: -102%
3,CCOc1ccccc1N(CC(=O)NCCSc1ccccn1)S(=O)(=O)c1ccccc1,inconclusive: -48.5%
4,COc1ccc(NC(=O)O/N=C/c2ccccc2)cc1,inactive: 26.3%
5,Nc1ncc(Br)cc1S(=O)(=O)NCCC(=O)NCc1ccc(F)cc1,inconclusive: -43.8%
6,Cc1ccc(C2CC(=O)n3nc(-c4ccc(Cl)cc4)nc3S2)cc1 (stereo not drawn),inactive: -4.64%
7,CN1CCN(c2ccc(NC(=O)c3sc4ccccc4c3Cl)cc2)CC1,inconclusive: -44.6%
8,O=C(c1ccc2ccccc2n1)N1CCN(c2ccccc2O)CC1,inactive: 52.2%
9,CN(C)C1=NC[C@H](Cc2ccccc2)N1CCc1cccc(F)c1,inconclusive: -49.3%
10,O=C(Nc1nc(-c2cccs2)cs1)c1ccc(S(=O)(=O)N2CCCC2)cc1,active: -90.3%
11,NC(=O)c1ccccc1NC(=O)CSC1=NCCS1,inconclusive: -49.8%
12,COCc1cc(=O)[nH]c(SC)n1,inconclusive: -41.8%
13,Cc1nnsc1C(=O)Nc1ccc(Cl)cc1,inconclusive: -41.8%
14,O=C(c1ccc(S(=O)(=O)Nc2ccc(F)cc2)cc1)N1CCN(c2ccccn2)CC1,active: -80.4%
15,COc1ccc(N2CCN(C(=O)CSc3ncnc4scc(-c5ccc(C)cc5)c34)CC2)cc1,inconclusive: -45.2%
16,Cc1ccc2nc(Cl)nc(-c3ccccc3)c2c1,inconclusive: -49.8%
17,COc1ccc(C(=O)Nc2ccccc2C(=O)N2CCCCC2C)cc1 (stereo not drawn),inconclusive: -47.3%
18,CCN(CC)S(=O)(=O)c1ccc(C(=O)N(c2ccc(C)cc2)C2C=CS(=O)(=O)C2)cc1 (stereo not drawn),inactive: -38.6%
19,Cc1cccc(NC(=O)C2CCN(S(=O)(=O)c3ccc(Cl)cc3)CC2)n1,inconclusive: -40.9%
20,O=C(NCCO)C(O)C(O)C(=O)NCCO (stereo not drawn),inconclusive: -46.7%
21,COc1ccc(S(=O)(=O)Cc2ccc(C(=O)N3CCN(c4ccc(Cl)cc4)CC3)o2)cc1,inconclusive: -57.5%
22,O=C(CSc1nnc(CNC(=O)c2ccccc2)o1)c1ccc(Cl)cc1,inactive: -16.5%

row,SMILES,"activity change, negative = inhibition"
1,CCOC(=O)Cn1nnnc1CN(Cc1ccc(OC)cc1)Cc1cc2cc(C)ccc2[nH]c1=O,inactive: 13.9%
2,O=C(NCCc1ccc(F)cc1)C(=O)NCC(c1ccco1)S(=O)(=O)c1ccccc1 (stereo not drawn),inconclusive: 0%
3,COc1ccc(-c2noc(C(=O)NCc3ccccc3Cl)n2)cc1OC,inactive: -37.8%
4,CCn1c(=O)c(C(=O)CN2CCN(S(=O)(=O)c3cc(C)ccc3C)CC2)c(N)n(Cc2ccccc2)c1=O,inconclusive: -49.2%
5,CN(C)CCCn1c(SCC(=O)Nc2nc(-c3cccc(Br)c3)cs2)nc2ccccc2c1=O,inconclusive: -49.4%
6,CCc1ccc(N(CC(=O)N2CCCC2)S(C)(=O)=O)cc1,inconclusive: -52.4%
7,COCCCn1c(SCC(=O)N2CCc3ccccc32)nnc1-c1ccco1,inactive: -16.8%
8,CCOC(=O)c1c(C)[nH]c2c1-c1ccccc1C(=O)C2=O,active: -99.7%
9,Cc1c(C(=O)N2CCc3ccccc3C2)oc2ccc(S(=O)(=O)N3CC(C)CC(C)C3)cc12 (stereo not drawn),inconclusive: -40%
10,CCOC(=O)C1=CCN(S(=O)(=O)c2ccccc2C)C1c1ccccc1 (stereo not drawn),inconclusive: -44.8%
11,Cc1ccc(SCCC(=O)N(C)C)cc1,inactive: 3.11%
12,COc1ccc(NC(=O)c2oc3ccc(S(=O)(=O)N4CCOCC4)cc3c2C)c(OC)c1,inconclusive: -40.5%
13,COc1ccc(N2CCN(C(=O)c3cc4c(=O)n(Cc5cccnc5)ccc4nc3C)CC2)cc1,inactive: -31.3%
14,O=C(NN=Cc1ccccc1O)c1cccc([N+](=O)[O-])c1,active: -96.5%
15,CCOc1cc(C(c2c(C)[nH]n(-c3ccccc3)c2=O)c2c(C)[nH]n(-c3ccccc3)c2=O)ccc1O,active: -105%
16,C/C(=N\NC(=O)Cc1csc(N2CCOCC2)n1)c1ccc(Cl)c(Cl)c1,inactive: -26.5%
17,O=C1Nc2ccccc2/C1=N/N=C/c1ccc(-c2ccc([N+](=O)[O-])cc2)o1,active: -82.6%
18,Cc1nc(C)c(-c2ccc(SCc3ccccc3C)nn2)s1,inactive: -15.1%
19,O=C(NCC(=O)N1CCC2(CC1)NCCc1[nH]cnc12)c1ccc(F)cc1,inconclusive: -41.5%
20,CCc1ccc(NC(=O)CSc2nc3nc(C)cc(C)n3n2)cc1,inconclusive: -50.5%
21,O=C1CSc2ccc(C(=O)Nc3cccc(S(=O)(=O)Nc4ccc(Br)cc4)c3)cc2N1,active: -90.9%
22,CCOc1ccc(C(=O)COC(=O)c2cc([N+](=O)[O-])ccc2N2CCOCC2)cc1,inconclusive: -58%
